According to publication PMC11126606:
No constants are given. Whether binding was seen depends on the method and setting. In cells and extracts the contact can be indirect. A yes stands for co-enrichment or nearness to the bait. Other partners may have been found. Tags and fused reporters may be left off the sequences shown.

Chains of the proteins cited; added tags and fusions are not shown.
UniProt Q8R4B8: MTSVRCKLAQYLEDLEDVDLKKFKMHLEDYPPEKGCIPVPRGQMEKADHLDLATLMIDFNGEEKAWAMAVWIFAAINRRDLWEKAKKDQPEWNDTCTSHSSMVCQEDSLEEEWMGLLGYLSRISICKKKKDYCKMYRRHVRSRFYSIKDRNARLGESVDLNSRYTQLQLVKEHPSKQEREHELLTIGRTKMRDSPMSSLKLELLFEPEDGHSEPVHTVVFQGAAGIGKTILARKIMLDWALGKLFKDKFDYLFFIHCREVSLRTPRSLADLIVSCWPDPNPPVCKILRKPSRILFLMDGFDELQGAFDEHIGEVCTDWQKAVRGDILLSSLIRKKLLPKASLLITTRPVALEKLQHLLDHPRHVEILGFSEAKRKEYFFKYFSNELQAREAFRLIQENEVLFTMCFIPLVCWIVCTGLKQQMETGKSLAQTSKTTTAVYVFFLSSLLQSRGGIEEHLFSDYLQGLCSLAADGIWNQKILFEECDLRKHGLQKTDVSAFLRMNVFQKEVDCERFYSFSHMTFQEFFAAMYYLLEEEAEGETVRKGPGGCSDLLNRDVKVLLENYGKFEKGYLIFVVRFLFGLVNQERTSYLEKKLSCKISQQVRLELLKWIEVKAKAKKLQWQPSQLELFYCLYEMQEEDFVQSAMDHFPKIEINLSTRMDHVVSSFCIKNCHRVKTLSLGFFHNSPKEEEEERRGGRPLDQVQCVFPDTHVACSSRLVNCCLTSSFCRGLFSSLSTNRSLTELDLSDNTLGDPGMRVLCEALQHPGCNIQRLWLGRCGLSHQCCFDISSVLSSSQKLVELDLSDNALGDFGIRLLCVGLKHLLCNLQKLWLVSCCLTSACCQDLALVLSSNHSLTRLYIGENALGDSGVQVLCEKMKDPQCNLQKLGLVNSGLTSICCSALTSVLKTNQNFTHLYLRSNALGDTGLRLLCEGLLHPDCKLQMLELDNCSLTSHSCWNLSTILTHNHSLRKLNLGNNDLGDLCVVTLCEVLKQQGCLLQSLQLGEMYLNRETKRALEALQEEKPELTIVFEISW
UniProt P46935: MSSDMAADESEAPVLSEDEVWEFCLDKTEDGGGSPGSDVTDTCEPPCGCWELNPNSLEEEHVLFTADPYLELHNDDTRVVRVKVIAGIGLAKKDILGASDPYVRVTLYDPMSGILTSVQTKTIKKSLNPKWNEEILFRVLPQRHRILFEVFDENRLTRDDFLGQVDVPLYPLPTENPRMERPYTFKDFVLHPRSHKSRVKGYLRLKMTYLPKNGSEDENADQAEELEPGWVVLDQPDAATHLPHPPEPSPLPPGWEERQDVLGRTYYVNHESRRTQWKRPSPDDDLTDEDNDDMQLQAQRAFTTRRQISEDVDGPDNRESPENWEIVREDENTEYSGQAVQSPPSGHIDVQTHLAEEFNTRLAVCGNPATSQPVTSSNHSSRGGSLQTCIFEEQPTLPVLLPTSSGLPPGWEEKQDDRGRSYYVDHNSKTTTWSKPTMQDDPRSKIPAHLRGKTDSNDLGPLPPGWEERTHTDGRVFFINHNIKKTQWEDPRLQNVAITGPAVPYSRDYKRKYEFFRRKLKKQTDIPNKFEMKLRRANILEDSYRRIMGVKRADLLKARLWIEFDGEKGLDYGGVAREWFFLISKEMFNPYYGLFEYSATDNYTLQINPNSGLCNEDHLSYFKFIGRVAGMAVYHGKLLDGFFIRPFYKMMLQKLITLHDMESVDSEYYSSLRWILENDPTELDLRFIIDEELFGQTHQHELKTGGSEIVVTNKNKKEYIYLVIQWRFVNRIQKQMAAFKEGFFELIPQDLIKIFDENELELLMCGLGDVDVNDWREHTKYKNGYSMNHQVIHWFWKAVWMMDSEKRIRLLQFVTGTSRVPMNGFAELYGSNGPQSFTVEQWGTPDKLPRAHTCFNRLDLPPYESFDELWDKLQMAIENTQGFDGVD

T1: Myc-tagged murine Yod1 (mouse) (UniProt Q8CB27)
T1 sequence: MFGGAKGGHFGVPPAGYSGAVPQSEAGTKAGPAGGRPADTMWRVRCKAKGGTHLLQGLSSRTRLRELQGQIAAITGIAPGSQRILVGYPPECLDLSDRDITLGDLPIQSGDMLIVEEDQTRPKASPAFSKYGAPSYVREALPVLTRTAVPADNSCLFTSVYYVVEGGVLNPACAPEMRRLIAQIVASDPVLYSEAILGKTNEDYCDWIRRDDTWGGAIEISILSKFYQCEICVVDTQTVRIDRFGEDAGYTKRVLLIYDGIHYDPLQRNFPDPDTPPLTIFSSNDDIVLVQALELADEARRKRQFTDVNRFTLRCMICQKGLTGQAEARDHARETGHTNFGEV

B1: TRIM33, endogenous mouse (protein, UniProt Q99PP7 1-1142)
chain: MAENKGGGEAESGGGGSGSAPVTAGAAGPTAQEAEPPLAAVLVEEEEEEGGRAGAEGGAAGPDDGGVAAASSSSAPAASVPAASVGSAVPGGAASTPAPAAAPAPAPAPAPAPAPAPAPAPAPGSSSGPPLGPPASLLDTCAVCQQSLQSRREAEPKLLPCLHSFCLRCLPEPERQLSVPIPGGSNGDVQQVGVIRCPVCRQECRQIDLVDNYFVKDTSEAPSSSDEKSEQVCTSCEDNASAVGFCVECGEWLCKTCIEAHQRVKFTKDHLIRKKEDVSESVGTSGQRPVFCPVHKQEQLKLFCETCDRLTCRDCQLLEHKEHRYQFLEEAFQNQKGAIENLLAKLLEKKNYVHFAATQVQNRIKEVNETNKRVEQEIKVAIFTLINEINKKGKSLLQQLENVTKERQMKLLQQQNDITGLSRQVKHVMNFTNWAIASGSSTALLYSKRLITFQLRHILKARCDPVPAANGAIRFHCDPTFWAKNVVNLGNLVIESKPAPGYTPNVVVGQVPPGTNHISKTPGQINLAQLRLQHMQQQVYAQKHQQLQQMRLQQPPAPIPTTTATTQQHPRQAAPQMLQQQPPRLISVQTMQRGNMNCGAFQAHQMRLAQNAARIPGIPRHSAPQYSMMQPHLQRQHSNPGHAGPFPVVSAHNPINPTSPTTATMANANRGPTSPSVTAIELIPSVTNPENLPSLPDIPPIQLEDAGSSSLDNLLSRYISGSHLPPQPTSTMNPSPGPSALSPGSSGLSNSHTPVRPPSTSSTGSRGSCGSSGRTAEKSAHSFKSDQVKVKQEPGTEEEICSFSGAVKQEKTEDGRRSACMLSSPESSLTPPLSTNLHLESELDTLTGLENHVKTEPTDISESCKQSGLSNLVNGKSPIRNLMHRSARIGGDGNSKDDDPNEDWCAVCQNGGDLLCCEKCPKVFHLTCHVPTLLSFPSGDWICTFCRDIGKPEVEYDCDNMQHSKKGKTAQGLSPVDQRKCERLLLYLYCHELSIEFQEPVPVSIPNYYKIIKKPMDLSTVKKKLQKKHSQHYQIPDDFVADVRLIFKNCERFNEMMKVVQVYADTQEINLKGDSEVAKAGKAVALYFEDKLSEIYSDRTFTPLPEFEQDEDDGEVTEDSDEDFIQPRRKRLKSDERPVHIK

Biological target: T1, Myc-tagged murine Yod1 (mouse)
Assay: affinity purification with mass spectrometry; Myc-tagged murine Yod1 overexpressed in mouse PMs, immunoprecipitation and mass spectrometry

binding, binds:
NLR-family pyrin domain-containing-3 (NLRP3), endogenous mouse (from UniProt Q8R4B8 1-1033)
neural precursor cell expressed developmentally downregulated protein 4 (NEDD4), endogenous mouse (from UniProt P46935 1-887)
B1
